In all, about 340,000 compounds went through this assay and about 170 (0.05%) were called active. This list was built around the results that the source calls inconclusive (neither active nor inactive); the mix of calls is not that of the screen. The call rests on the fitted dose curve; in most records, active means well fitted inhibition curve with a large enough effect in the signal ratio, with a control signal flat (not every such curve was filed as active); inconclusive means small, poorly fitted or top-dose-only effect, or effect the other way, or a change in a side signal; inactive means flat fitted curve, though single readings scatter; the % refers to the signal ratio. Where the call is inconclusive, the potency comes from a doubtful curve fit.
Assay: qHTS Assay to Find Inhibitors of Chronic Active B-Cell Receptor Signaling;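 on activity change, negative = inhibition: plate controls were basal doxycycline-induced cells for no effect and cells given 10 µM MG132 for full effect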
Conditions: ABC-DLBCL IkBa-CBG/CBR reporter, luminescence ratio (green luciferase fused to IkBa over red control in TMD8 lymphoma cells), 4 h; activity change, negative = inhibition: at 46.1 µM (top of the series)
In short: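 Doxycycline induced both beetle luciferases in TMD8 lymphoma cells; IKK-driven degradation limits the IkappaBalpha-fused green signal, while red luminescence normalises for cell number and nonspecific effects. Compounds tested up to 46 uM, 4 hrs.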
For `Cc1ccc(C(=O)NNC(=O)C(C)Oc2ccc3ccccc3c2)o1` (stereo unspecified), the Potency was inconclusive: 2.91 µM [rising, partial curve].
For `COc1cccc2cc(C(=O)OCC(=O)N3CC(C)OC(C)C3)c(=O)oc12` (stereo unspecified), the activity change, negative = inhibition was inconclusive: -4.36%.
With `O=C(N/N=C/c1ccc(OCc2ccccc2)cc1)c1ccc(O)cc1` the Potency was inconclusive: 5.62 µM [falling, partial curve, poor fit].
With `CCOC(=O)N1CCC(N(CCN(C)C)C(=S)Nc2cccc(C)c2)CC1` the Potency was inconclusive: 29.1 µM [rising, single point].
For `CS(=O)(=O)Nc1ccc(C(=O)Nc2ccc3ccccc3c2)cc1`, the activity change, negative = inhibition was inconclusive: -7.54%.
In the case of `Nc1nonc1-n1nnc(C(=O)N/N=C/c2ccccc2Cl)c1-c1ccc2c(c1)OCO2`, the “activity change, negative = inhibition” value is reported as inactive: -0.372%.
For `CCOC(=O)Cc1csc(SCn2nnc3ccccc3c2=O)n1`, the “activity change, negative = inhibition” value was inactive: 0.268%.
In the case of `Oc1ccc(Br)cc1/C=N/n1c(C2CCCCC2)n[nH]c1=S`, the “activity change, negative = inhibition” value is reported as inactive: -1.02%.
For `COc1cc2oc(=O)cc(-c3cccc(-c4ccc(C(F)(F)F)cc4)c3)c2c(OC)c1OC`, the “activity change, negative = inhibition” value was inactive: 2.01%.
For `O=C(NCC1CCCO1)C(=Cc1cccc([N+](=O)[O-])c1)C(=O)NCC1CCCO1` (stereo unspecified), the activity change, negative = inhibition was inconclusive: -18%.
With `CCOC(=O)c1c(C)[nH]c(C(=O)OCC(=O)Nc2ccc(OCC)cc2)c1C` the Potency was inconclusive: 25.9 µM [falling, single point].
For `C#CCNC(=O)C1=C[C@H](c2coc3ccccc3c2=O)C[C@H](OCc2ccc(CO)cc2)O1`, the activity change, negative = inhibition was inconclusive: -15.2%.
For `C(/CCc1ccccc1)=N\n1cnnc1`, the “activity change, negative = inhibition” value was inactive: 5.08%.
With `Cc1cc(C)c(C#N)c(SCC(=O)N(CCC#N)c2ccc3c(c2)OCCO3)n1` the activity change, negative = inhibition was inconclusive: 1.11%.
With `C[C@H]1CN=C(Nc2ccccc2)N1CCCC1CCCCC1` the Potency was inconclusive: 11.2 µM [falling, partial curve, poor fit].
With `COc1ccc(C(=O)NC2CCN(CC(=O)NCc3ccccc3)CC2)cc1` the “activity change, negative = inhibition” value was inactive: -1.58%.
For `Cc1ccc(NC(=O)COC(=O)CCc2c(C)nc3ncnn3c2C)cc1C`, the activity change, negative = inhibition was inconclusive: 3.66%.
For `CSc1ccccc1NC(=O)Nc1ccccc1`, the Potency was inconclusive: 25.9 µM [falling, partial curve].
In the case of `COc1cc(NC(=O)CN(c2cc(C)cc(C)c2)S(=O)(=O)c2c(C)[nH]c(=O)[nH]c2=O)cc(OC)c1`, the activity change, negative = inhibition is reported as inconclusive: 0.98%.
In the case of `Cc1ccc(S(=O)(=O)/N=C2\C=C(Nc3cccc(C(=O)O)c3)C(=O)c3ccccc32)cc1`, the Potency is reported as inconclusive: 5.62 µM [falling, single point].
With `CC(C)C1OC(c2cccc(NC(=O)c3cccs3)c2)OCC1(C)C` (stereo unspecified) the “activity change, negative = inhibition” value was inactive: -4.5%.
Potency means the concentration at half of the fitted maximal effect.
